Laboratory results: patent US20250101129A1 (AJINOMOTO, published 2025)

Target: T1, Fc protein of human IgG1 antibody (human, UniProt P01857-1 100-330 = IgG part, limits assumed)
T1 construct: domain: Fc; Immobilised on a CM5 chip by amine coupling at about 1400 RU; also called Fc region of an IgG1 antibody
Test: SPR Biacore T200, 25 C, Fc of human IgG1 amine-coupled on CM5, peptide as analyte, single cycle kinetics

B1: QET-ProAR-PA48-Z34CK (peptide)
chain: QETFNREQQNAFYEILHLPNLNEEQRNGFIQSLRDDPSQSANLLAEAGGAAPAAPAPAAPAAPAPAAPAAPAPAAPAAPAPAAPAAPAPAAPAAPAPGGFNKQCQRRFYEALHDPNLNEEQRNARIRSIREEC
modifications: C-terminal -NH2 as printed in the 1st table; N-terminal Gln designed to be pyroglutamylated
- Kd: 1.08 nM
